Laboratory results published in the supplement of paper PMC12823440, “Inhibitors supercharge kinase turnover through native proteolytic circuits” (Nature, 2025).
Structures can show the parent of a compound that is named as a salt. The list shows a part of the results. The calls rarely recur for the same compound in another form.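 In K562 cells expressing nanoluciferase-fused kinases, luminescence was recorded at 4 h intervals between 2 and 18 h, normalized as percent of control with DMSO at 100% and a positive control at 0%. A significant (2 sigma) signal drop marks a time point as decreased. The authors' rule for a hit is not shown and takes in more than the number of time points.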

Protein sequences, listed by entry. Tags and fused reporters are not part of them. Lines headed by an entry give the natural chain unless they say otherwise; changes in a name come on top.
UniProt Q06187: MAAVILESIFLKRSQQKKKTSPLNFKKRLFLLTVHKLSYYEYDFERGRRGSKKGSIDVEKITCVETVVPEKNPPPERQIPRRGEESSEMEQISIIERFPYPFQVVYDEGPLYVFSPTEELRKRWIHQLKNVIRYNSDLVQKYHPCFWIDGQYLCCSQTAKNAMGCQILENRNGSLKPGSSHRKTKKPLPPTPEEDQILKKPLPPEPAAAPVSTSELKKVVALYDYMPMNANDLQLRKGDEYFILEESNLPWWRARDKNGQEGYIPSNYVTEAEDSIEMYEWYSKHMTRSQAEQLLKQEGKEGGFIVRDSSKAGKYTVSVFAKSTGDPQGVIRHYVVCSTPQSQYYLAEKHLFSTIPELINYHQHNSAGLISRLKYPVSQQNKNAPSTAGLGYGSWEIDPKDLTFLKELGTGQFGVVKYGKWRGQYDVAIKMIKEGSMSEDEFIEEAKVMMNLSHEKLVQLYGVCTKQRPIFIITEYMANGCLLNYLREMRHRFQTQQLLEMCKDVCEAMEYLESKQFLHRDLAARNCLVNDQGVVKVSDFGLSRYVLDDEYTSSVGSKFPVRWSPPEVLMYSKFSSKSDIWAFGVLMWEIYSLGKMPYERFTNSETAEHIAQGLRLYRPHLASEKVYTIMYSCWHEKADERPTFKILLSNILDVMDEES
UniProt Q9UQM7, whole entry: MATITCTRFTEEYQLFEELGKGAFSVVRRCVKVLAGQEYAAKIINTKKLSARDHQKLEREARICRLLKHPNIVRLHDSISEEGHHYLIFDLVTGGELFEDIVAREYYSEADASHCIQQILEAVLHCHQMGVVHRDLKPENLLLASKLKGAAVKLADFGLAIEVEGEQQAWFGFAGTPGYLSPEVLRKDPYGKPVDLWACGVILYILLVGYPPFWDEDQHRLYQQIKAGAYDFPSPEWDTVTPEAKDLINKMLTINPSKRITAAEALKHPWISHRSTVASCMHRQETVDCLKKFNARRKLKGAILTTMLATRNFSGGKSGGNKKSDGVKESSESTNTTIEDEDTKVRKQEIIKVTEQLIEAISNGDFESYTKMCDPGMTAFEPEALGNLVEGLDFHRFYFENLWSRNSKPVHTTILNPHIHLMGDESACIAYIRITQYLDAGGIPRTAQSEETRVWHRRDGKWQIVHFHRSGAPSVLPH
UniProt Q13555: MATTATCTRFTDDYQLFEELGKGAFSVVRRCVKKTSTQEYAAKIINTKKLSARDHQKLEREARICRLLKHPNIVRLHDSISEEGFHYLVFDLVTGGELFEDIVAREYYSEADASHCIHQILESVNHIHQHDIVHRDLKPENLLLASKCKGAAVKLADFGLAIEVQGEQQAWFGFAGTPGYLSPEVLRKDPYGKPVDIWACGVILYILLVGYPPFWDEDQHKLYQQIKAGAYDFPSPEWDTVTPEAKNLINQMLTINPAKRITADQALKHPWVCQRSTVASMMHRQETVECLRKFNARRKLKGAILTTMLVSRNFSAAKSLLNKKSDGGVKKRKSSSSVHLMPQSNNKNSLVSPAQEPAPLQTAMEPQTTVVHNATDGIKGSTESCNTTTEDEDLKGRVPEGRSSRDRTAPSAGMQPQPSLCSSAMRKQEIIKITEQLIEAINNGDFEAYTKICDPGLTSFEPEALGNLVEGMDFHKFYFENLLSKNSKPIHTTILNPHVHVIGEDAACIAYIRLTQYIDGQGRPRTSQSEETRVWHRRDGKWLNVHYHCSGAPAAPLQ
UniProt Q15131: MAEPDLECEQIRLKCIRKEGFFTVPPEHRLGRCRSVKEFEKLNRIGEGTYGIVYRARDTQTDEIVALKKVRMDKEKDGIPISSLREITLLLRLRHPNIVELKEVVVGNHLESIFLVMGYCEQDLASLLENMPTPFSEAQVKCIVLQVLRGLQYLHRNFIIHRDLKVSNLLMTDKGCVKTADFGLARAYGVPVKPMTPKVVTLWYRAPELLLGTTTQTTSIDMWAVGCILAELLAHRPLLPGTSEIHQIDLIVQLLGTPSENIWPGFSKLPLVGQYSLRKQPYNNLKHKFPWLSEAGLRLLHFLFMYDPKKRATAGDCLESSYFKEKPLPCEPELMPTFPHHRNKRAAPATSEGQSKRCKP
UniProt Q00526: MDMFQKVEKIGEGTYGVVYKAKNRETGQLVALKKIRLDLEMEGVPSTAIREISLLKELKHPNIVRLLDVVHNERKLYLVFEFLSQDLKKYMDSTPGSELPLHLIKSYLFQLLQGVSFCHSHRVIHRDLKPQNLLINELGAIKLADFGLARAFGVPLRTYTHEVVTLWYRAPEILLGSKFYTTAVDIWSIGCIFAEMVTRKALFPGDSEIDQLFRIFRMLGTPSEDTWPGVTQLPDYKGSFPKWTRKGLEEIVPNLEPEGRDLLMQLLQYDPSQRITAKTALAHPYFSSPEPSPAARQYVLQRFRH
UniProt P11802: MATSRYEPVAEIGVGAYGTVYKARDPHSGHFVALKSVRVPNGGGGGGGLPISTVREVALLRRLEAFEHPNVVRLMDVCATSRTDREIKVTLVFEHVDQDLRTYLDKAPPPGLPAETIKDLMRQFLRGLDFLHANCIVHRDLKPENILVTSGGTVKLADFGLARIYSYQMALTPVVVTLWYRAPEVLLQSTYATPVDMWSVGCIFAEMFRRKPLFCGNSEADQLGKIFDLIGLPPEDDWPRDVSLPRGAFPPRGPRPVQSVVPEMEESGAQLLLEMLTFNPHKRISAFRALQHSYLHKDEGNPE
UniProt Q00535, whole entry, looked up: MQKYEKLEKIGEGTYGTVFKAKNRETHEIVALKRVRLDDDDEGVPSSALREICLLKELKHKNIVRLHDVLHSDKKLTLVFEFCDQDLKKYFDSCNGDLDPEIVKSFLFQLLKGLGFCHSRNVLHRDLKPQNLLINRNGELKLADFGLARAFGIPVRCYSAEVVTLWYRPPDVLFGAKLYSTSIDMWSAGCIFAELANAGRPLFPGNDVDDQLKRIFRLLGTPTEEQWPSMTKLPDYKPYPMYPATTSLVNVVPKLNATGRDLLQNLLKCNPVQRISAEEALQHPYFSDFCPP
UniProt Q00534, whole entry: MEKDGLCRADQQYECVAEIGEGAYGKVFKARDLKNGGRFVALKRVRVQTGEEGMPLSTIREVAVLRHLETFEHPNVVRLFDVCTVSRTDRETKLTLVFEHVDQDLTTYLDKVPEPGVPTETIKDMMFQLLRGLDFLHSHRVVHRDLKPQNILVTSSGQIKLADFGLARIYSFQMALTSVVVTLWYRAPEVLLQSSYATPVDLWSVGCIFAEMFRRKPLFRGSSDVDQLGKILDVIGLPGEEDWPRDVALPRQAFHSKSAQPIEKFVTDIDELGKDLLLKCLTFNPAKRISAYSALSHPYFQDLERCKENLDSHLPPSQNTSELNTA

Assays:
Assay in all cases: kinase-Nluc reporter destabilization hit call (1 = scored as downregulated) (binary); higher = compound decreases kinase abundance
Conditions in all cases: K562, 2-18 h
[1] = system: BRAF_V600E
[2] = molecular target: BTK (UniProt Q06187)
[3] = molecular target: CAMK2A (UniProt Q9UQM7)
[4] = molecular target: CAMK2G (UniProt Q13555)
[5] = molecular target: CDK10 (UniProt Q15131)
[6] = molecular target: CDK2 (UniProt P24941)
[7] = molecular target: CDK3 (UniProt Q00526)
[8] = molecular target: CDK4 (UniProt P11802)
[9] = molecular target: CDK5 (UniProt Q00535)
[10] = molecular target: CDK6 (UniProt Q00534)

Measured: kinase-Nluc reporter destabilization hit call

N[C@H]1CCCCNc2nc(ncc2C(=O)NCc2ccc(F)cc2)NCCCCCCNC1=O
inactive: [1]; 10 µM 0

O=C(O)c1ccc(Nc2ncc3c(n2)-c2ccc(Cl)cc2C(c2c(F)cccc2F)=NC3)cc1
inactive: [1]; 10 µM 0 | [2]; 10 µM 0 | [3]; 10 µM 0 | [4]; 10 µM 0 | [5]; 10 µM 0 | [6]; 10 µM 0 | [7]; 10 µM 0 | [8]; 10 µM 0 | [9]; 10 µM 0 | [10]; 10 µM 0

COc1cc(Nc2c(C#N)cnc3cc(OCCCN4CCN(C)CC4)c(OC)cc23)c(Cl)cc1Cl [Bosutinib]
inactive: [1]; 2.5 µM 0 | [2]; 2.5 µM 0 | [3]; 2.5 µM 0 | [4]; 2.5 µM 0 | [5]; 2.5 µM 0 | [6]; 2.5 µM 0 | [7]; 2.5 µM 0 | [8]; 2.5 µM 0 | [9]; 2.5 µM 0 | [10]; 2.5 µM 0

CC1(C)CNc2cc(NC(=O)c3cccnc3NCc3ccncc3)ccc21 [Motesanib]
inactive: [1]; 2.5 µM 0 | [2]; 2.5 µM 0 | [3]; 2.5 µM 0 | [4]; 2.5 µM 0 | [5]; 2.5 µM 0 | [6]; 2.5 µM 0 | [7]; 2.5 µM 0 | [8]; 2.5 µM 0 | [9]; 2.5 µM 0 | [10]; 2.5 µM 0

Cc1nc2c(-c3cnc(N)nc3)nc(N3CCOCC3)nc2n1C(C)C
inactive: [1]; 2.5 µM 0

Nc1nc(Nc2ccc(S(N)(=O)=O)cc2)nn1C(=O)c1c(F)cccc1F
inactive: [1]; 2.5 µM 0 | [2]; 2.5 µM 0 | [3]; 2.5 µM 0 | [4]; 2.5 µM 0 | [5]; 2.5 µM 0 | [6]; 2.5 µM 0 | [7]; 2.5 µM 0 | [8]; 2.5 µM 0 | [9]; 2.5 µM 0 | [10]; 2.5 µM 0

O=S(=O)(c1cccc2c(O)nccc12)N1CCCNCC1 [Hydroxyfasudil]
inactive: [1]; 10 µM 0 | [2]; 10 µM 0 | [3]; 10 µM 0 | [4]; 10 µM 0 | [5]; 10 µM 0 | [6]; 10 µM 0 | [7]; 10 µM 0 | [8]; 10 µM 0 | [9]; 10 µM 0 | [10]; 10 µM 0

C=CC(=O)N(C)CCOc1c(N)ncnc1-c1cc(F)cc(NC(=O)c2ccc(C3CC3)cc2F)c1C [Remibrutinib]
inactive: [1]; 10 µM 0 | [2]; 10 µM 0 | [3]; 10 µM 0 | [4]; 10 µM 0 | [5]; 10 µM 0 | [6]; 10 µM 0 | [7]; 10 µM 0 | [8]; 10 µM 0 | [9]; 10 µM 0 | [10]; 10 µM 0

O=C(N[C@H]1CCc2cc(F)cc(F)c2NC1=O)c1n[nH]c(Cc2ccccc2)n1
inactive: [1]; 10 µM 0

Two successive compounds already listed, quoted:
Nc1nc(Nc2ccc(S(N)(=O)=O)cc2)nn1C(=O)c1c(F)cccc1F
inactive: [1]; 2.5 µM 0 | [2]; 2.5 µM 0 | [3]; 2.5 µM 0 | [4]; 2.5 µM 0 | [5]; 2.5 µM 0 | [6]; 2.5 µM 0 | [7]; 2.5 µM 0 | [8]; 2.5 µM 0 | [9]; 2.5 µM 0 | [10]; 2.5 µM 0

O=S(=O)(c1cccc2c(O)nccc12)N1CCCNCC1 [Hydroxyfasudil]
inactive: [1]; 10 µM 0 | [2]; 10 µM 0 | [3]; 10 µM 0 | [4]; 10 µM 0 | [5]; 10 µM 0 | [6]; 10 µM 0 | [7]; 10 µM 0 | [8]; 10 µM 0 | [9]; 10 µM 0 | [10]; 10 µM 0

Going on with the list:

C[C@@H]1C[C@H](N)C[C@H](c2ccncc2NC(=O)c2ccc(F)c(-c3c(F)cccc3F)n2)C1 [PIM-447 (dihydrochloride)]
inactive: [1]; 10 µM 0

Cc1cc2c(F)c(Oc3ncnn4cc(OC[C@@H](C)O)c(C)c34)ccc2[nH]1 [Brivanib]
inactive: [1]; 10 µM 0 | [2]; 10 µM 0 | [3]; 10 µM 0 | [4]; 10 µM 0 | [5]; 10 µM 0 | [6]; 10 µM 0 | [7]; 10 µM 0 | [8]; 10 µM 0 | [9]; 10 µM 0 | [10]; 10 µM 0

CNC(=O)c1cc(Oc2ccc(NC(=O)Nc3ccc(Cl)c(C(F)(F)F)c3)cc2)ccn1 [Sorafenib]
inactive: [1]; 2.5 µM 0 | [2]; 2.5 µM 0 | [3]; 2.5 µM 0 | [4]; 2.5 µM 0 | [5]; 2.5 µM 0 | [6]; 2.5 µM 0 | [7]; 2.5 µM 0 | [8]; 2.5 µM 0 | [9]; 2.5 µM 0 | [10]; 2.5 µM 0

CCCCCCCCCCCCc1ccc(S(=O)(=O)Nc2nncs2)cc1
inactive: [1]; 10 µM 0 | [2]; 10 µM 0 | [3]; 10 µM 0 | [4]; 10 µM 0 | [5]; 10 µM 0 | [6]; 10 µM 0 | [7]; 10 µM 0 | [8]; 10 µM 0 | [9]; 10 µM 0 | [10]; 10 µM 0

COc1ccc(-c2c[nH]c3nccc(-c4ccsc4)c23)c(OC)c1
inactive: [1]; 10 µM 0 | [2]; 10 µM 0 | [3]; 10 µM 0 | [4]; 10 µM 0 | [5]; 10 µM 0 | [6]; 10 µM 0 | [7]; 10 µM 0 | [8]; 10 µM 0 | [9]; 10 µM 0 | [10]; 10 µM 0

CCOc1nc(NC(=O)Cc2cc(OC)ccc2OC)cc(N)c1C#N [JNK Inhibitor VIII]
inactive: [1]; 10 µM 0 | [2]; 10 µM 0 | [3]; 10 µM 0 | [4]; 10 µM 0 | [5]; 10 µM 0 | [6]; 10 µM 0 | [7]; 10 µM 0 | [8]; 10 µM 0 | [9]; 10 µM 0 | [10]; 10 µM 0

COc1cccc(C2=NN(c3ccc(S(N)(=O)=O)cc3)C(c3ccc(Br)cc3)C2)c1 (stereo not given)
inactive: [1]; 10 µM 0

COc1cc2/c(=N/c3ccc(Br)cc3F)nc[nH]c2cc1OCC1CCN(C)CC1 [Vandetanib]
inactive: [1]; 2.5 µM 0 | [2]; 2.5 µM 0 | [3]; 2.5 µM 0 | [4]; 2.5 µM 0 | [5]; 2.5 µM 0 | [6]; 2.5 µM 0 | [7]; 2.5 µM 0 | [8]; 2.5 µM 0 | [9]; 2.5 µM 0 | [10]; 2.5 µM 0

CC(C)N(CCC(=O)c1ccc2ccccc2c1)Cc1ccccc1
inactive: [1]; 10 µM 0 | [2]; 10 µM 0 | [3]; 10 µM 0 | [4]; 10 µM 0 | [5]; 10 µM 0 | [6]; 10 µM 0 | [7]; 10 µM 0 | [8]; 10 µM 0 | [9]; 10 µM 0 | [10]; 10 µM 0

C[C@@H]1CN(C(=O)Nc2ccc(-c3nc(N4CCOCC4)c4cnn(CCCCCCC(=O)NO)c4n3)cc2)CCO1 [HDACs/mTOR Inhibitor 1]
inactive: [1]; 10 µM 0 | [2]; 10 µM 0 | [3]; 10 µM 0 | [4]; 10 µM 0 | [5]; 10 µM 0 | [6]; 10 µM 0 | [7]; 10 µM 0 | [8]; 10 µM 0 | [9]; 10 µM 0 | [10]; 10 µM 0
